Measurements reported in paper PMC8384837.
Changes are numbered by the printed parent chain. Some of the results follow. For part of these data: At the low end of the ranking the order means little.

How the values were obtained:
Conditions in all cases: yeast three-hybrid, YBZ-1, SC-Leu-His + 0.5 mM 3-AT, 4 days
[1] = target: T1, PUM1 PUF domain R5-NGC C1007N + R1008G + Q1011C (UniProt Q14671)
T1 sequence: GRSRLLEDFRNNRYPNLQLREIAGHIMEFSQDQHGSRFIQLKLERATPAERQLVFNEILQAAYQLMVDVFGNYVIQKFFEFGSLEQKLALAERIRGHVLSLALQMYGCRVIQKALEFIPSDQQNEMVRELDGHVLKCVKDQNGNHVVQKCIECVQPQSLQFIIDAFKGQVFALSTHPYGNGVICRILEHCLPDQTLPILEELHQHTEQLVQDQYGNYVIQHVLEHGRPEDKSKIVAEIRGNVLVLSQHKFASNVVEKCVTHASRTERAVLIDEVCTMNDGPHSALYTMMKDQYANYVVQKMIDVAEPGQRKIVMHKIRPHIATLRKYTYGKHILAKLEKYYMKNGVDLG

[2] = target: T2, PUM1 PUF domain R5-NGS C1007N + R1008G + Q1011S (UniProt Q14671)
T2 sequence: T1 sequence with C184S

[3] = target: T3, PUM1 PUF domain R5-NLL C1007N + R1008L + Q1011L (UniProt Q14671)
T3 sequence: T1 sequence with G181L, C184L

[4] = target: T4, PUM1 PUF domain R5-NSV C1007N + R1008S + Q1011V (UniProt Q14671)
T4 sequence: T1 sequence with G181S, C184V

[5] = target: T5, PUM1 PUF domain R5-PFP C1007P + R1008F + Q1011P (UniProt Q14671)
T5 sequence: T1 sequence with N180P, G181F, C184P

[6] = target: T6, PUM1 PUF domain R5-PHL C1007P + R1008H + Q1011L (Homo sapiens) (UniProt Q14671)
T6 sequence: T1 sequence with N180P, G181H, C184L

[7] = target: T7, PUM1 PUF domain R5-PLD C1007P + R1008L + Q1011D (UniProt Q14671)
T7 sequence: T1 sequence with N180P, G181L, C184D

[8] = target: T8, PUM1 PUF domain R5-PMG C1007P + R1008M + Q1011G (Homo sapiens) (UniProt Q14671)
T8 sequence: T1 sequence with N180P, G181M, C184G

[9] = target: T9, PUM1 PUF domain R5-PRA C1007P + Q1011A (Homo sapiens) (UniProt Q14671)
T9 sequence: T1 sequence with N180P, G181R, C184A

[10] = target: T10, PUM1 PUF domain R5-PRC C1007P + Q1011C (Homo sapiens) (UniProt Q14671)
T10 sequence: T1 sequence with N180P, G181R

[11] = target: T11, PUM1 PUF domain R5-PRE C1007P + Q1011E (Homo sapiens) (UniProt Q14671)
T11 sequence: T1 sequence with N180P, G181R, C184E

[12] = target: T12, PUM1 PUF domain R5-PRF C1007P + Q1011F (Homo sapiens) (UniProt Q14671)
T12 sequence: T1 sequence with N180P, G181R, C184F

[13] = target: T13, PUM1 PUF domain R5-PRH C1007P + Q1011H (Homo sapiens) (UniProt Q14671)
T13 sequence: T1 sequence with N180P, G181R, C184H

[14] = target: T14, PUM1 PUF domain R5-PRI C1007P + Q1011I (Homo sapiens) (UniProt Q14671)
T14 sequence: T1 sequence with N180P, G181R, C184I

[15] = target: T15, PUM1 PUF domain R5-PRQ C1007P (Homo sapiens) (UniProt Q14671)
T15 sequence: T1 sequence with N180P, G181R, C184Q

[16] = target: T16, PUM1 PUF domain R5-PRS C1007P + Q1011S (Homo sapiens) (UniProt Q14671)
T16 sequence: T1 sequence with N180P, G181R, C184S

[17] = target: T17, PUM1 PUF domain R5-QCL C1007Q + R1008C + Q1011L (UniProt Q14671)
T17 sequence: T1 sequence with N180Q, G181C, C184L

[18] = target: T18, PUM1 PUF domain R5-QCS C1007Q + R1008C + Q1011S (UniProt Q14671)
T18 sequence: T1 sequence with N180Q, G181C, C184S

[19] = target: T19, PUM1 PUF domain R5-QKV C1007Q + R1008K + Q1011V (Homo sapiens) (UniProt Q14671)
T19 sequence: T1 sequence with N180Q, G181K, C184V

[20] = target: T20, PUM1 PUF domain R5-QLS C1007Q + R1008L + Q1011S (UniProt Q14671)
T20 sequence: T1 sequence with N180Q, G181L, C184S

[21] = target: T21, PUM1 PUF domain R5-QLV C1007Q + R1008L + Q1011V (UniProt Q14671)
T21 sequence: T1 sequence with N180Q, G181L, C184V

[22] = target: T22, PUM1 PUF domain R5-QMG C1007Q + R1008M + Q1011G (UniProt Q14671)
T22 sequence: T1 sequence with N180Q, G181M, C184G

[23] = target: T23, PUM1 PUF domain R5-QNG C1007Q + R1008N + Q1011G (Homo sapiens) (UniProt Q14671)
T23 sequence: T1 sequence with N180Q, G181N, C184G

[24] = target: T24, PUM1 PUF domain R5-QQG C1007Q + R1008Q + Q1011G (UniProt Q14671)
T24 sequence: T1 sequence with N180Q, G181Q, C184G

[25] = target: T25, PUM1 PUF domain R5-QRS C1007Q + Q1011S (Homo sapiens) (UniProt Q14671)
T25 sequence: T1 sequence with N180Q, G181R, C184S

[26] = target: T26, PUM1 PUF domain R5-RDG C1007R + R1008D + Q1011G (UniProt Q14671)
T26 sequence: T1 sequence with N180R, G181D, C184G

[27] = target: T27, PUM1 PUF domain R5-RDK C1007R + R1008D + Q1011K (Homo sapiens) (UniProt Q14671)
T27 sequence: T1 sequence with N180R, G181D, C184K

[28] = target: T28, PUM1 PUF domain R5-RPM C1007R + R1008P + Q1011M (Homo sapiens) (UniProt Q14671)
T28 sequence: T1 sequence with N180R, G181P, C184M

[29] = target: T29, PUM1 PUF domain R5-RPN C1007R + R1008P + Q1011N (Homo sapiens) (UniProt Q14671)
T29 sequence: T1 sequence with N180R, G181P, C184N

[30] = target: T30, PUM1 PUF domain R5-SAC C1007S + R1008A + Q1011C (UniProt Q14671)
T30 sequence: T1 sequence with N180S, G181A

[31] = target: T31, PUM1 PUF domain R5-SAG C1007S + R1008A + Q1011G (Homo sapiens) (UniProt Q14671)
T31 sequence: T1 sequence with N180S, G181A, C184G

[32] = target: T32, PUM1 PUF domain R5-SAP C1007S + R1008A + Q1011P (UniProt Q14671)
T32 sequence: T1 sequence with N180S, G181A, C184P

[33] = target: T33, PUM1 PUF domain R5-SAS C1007S + R1008A + Q1011S (UniProt Q14671)
T33 sequence: T1 sequence with N180S, G181A, C184S

[34] = target: T34, PUM1 PUF domain R5-SAT C1007S + R1008A + Q1011T (UniProt Q14671)
T34 sequence: T1 sequence with N180S, G181A, C184T

[35] = target: T35, PUM1 PUF domain R5-SED C1007S + R1008E + Q1011D (UniProt Q14671)
T35 sequence: T1 sequence with N180S, G181E, C184D

[36] = target: T36, PUM1 PUF domain R5-SEQ C1007S + R1008E (UniProt Q14671)
T36 sequence: T1 sequence with N180S, G181E, C184Q

[37] = target: T37, PUM1 PUF domain R5-SGC C1007S + R1008G + Q1011C (UniProt Q14671)
T37 sequence: T1 sequence with N180S

[38] = target: T38, PUM1 PUF domain R5-SGG C1007S + R1008G + Q1011G (UniProt Q14671)
T38 sequence: T1 sequence with N180S, C184G

[39] = target: T39, PUM1 PUF domain R5-SGS C1007S + R1008G + Q1011S (UniProt Q14671)
T39 sequence: T1 sequence with N180S, C184S

**Q.** “GGCUAGAACUAGUGGAUCCCCCGGCGCCCGGCGGCUCGAGCCCGGGUAAGUGUCAAUAGUCUGCAUGCCGCCGGGCGCCAUGCCUGCAGGUCGACUCUAGAAAACAUG” was tested. Which binding signal (log2 enrichment (interaction score)) [1] did it give?
**A.** < -6.42

**Q.** What about the binding signal (log2 enrichment (interaction score)) [2] of the same sequence?
**A.** -4.06

**Q.** And the binding signal (log2 enrichment (interaction score)) [3]?
**A.** < -6.62

**Q.** And the binding signal (log2 enrichment (interaction score)) [4]?
**A.** < -7.81

**Q.** And the binding signal (log2 enrichment (interaction score)) [5]?
**A.** < -6.16

**Q.** And the binding signal (log2 enrichment (interaction score)) [6]?
**A.** -1.55

**Q.** And the binding signal (log2 enrichment (interaction score)) [7]?
**A.** < -6.18

**Q.** What about the binding signal (log2 enrichment (interaction score)) [8] of the same sequence?
**A.** -1.54

**Q.** What about the binding signal (log2 enrichment (interaction score)) [9] of the same sequence?
**A.** -0.58

**Q.** What about the binding signal (log2 enrichment (interaction score)) [10] of the same sequence?
**A.** -1.45

**Q.** And the binding signal (log2 enrichment (interaction score)) [11]?
**A.** 0.4

**Q.** What about the binding signal (log2 enrichment (interaction score)) [12] of the same sequence?
**A.** -2.81

**Q.** And the binding signal (log2 enrichment (interaction score)) [13]?
**A.** 0.33

**Q.** And the binding signal (log2 enrichment (interaction score)) [14]?
**A.** -1.12

**Q.** What about the binding signal (log2 enrichment (interaction score)) [15] of the same sequence?
**A.** 0.22

**Q.** And the binding signal (log2 enrichment (interaction score)) [16]?
**A.** 0.21

**Q.** What about the binding signal (log2 enrichment (interaction score)) [17] of the same sequence?
**A.** < -5.45

**Q.** And the binding signal (log2 enrichment (interaction score)) [18]?
**A.** -2.63

**Q.** And the binding signal (log2 enrichment (interaction score)) [19]?
**A.** 1.16

**Q.** And the binding signal (log2 enrichment (interaction score)) [20]?
**A.** -2.78

**Q.** And the binding signal (log2 enrichment (interaction score)) [21]?
**A.** < -6.68

**Q.** And the binding signal (log2 enrichment (interaction score)) [22]?
**A.** < -6.87

**Q.** What about the binding signal (log2 enrichment (interaction score)) [23] of the same sequence?
**A.** -0.85

**Q.** What about the binding signal (log2 enrichment (interaction score)) [24] of the same sequence?
**A.** -3.12

**Q.** And the binding signal (log2 enrichment (interaction score)) [25]?
**A.** 0.35

**Q.** What about the binding signal (log2 enrichment (interaction score)) [26] of the same sequence?
**A.** -4.17

**Q.** What about the binding signal (log2 enrichment (interaction score)) [27] of the same sequence?
**A.** -2.12

**Q.** What about the binding signal (log2 enrichment (interaction score)) [28] of the same sequence?
**A.** -0.48

**Q.** What about the binding signal (log2 enrichment (interaction score)) [29] of the same sequence?
**A.** -0.3

**Q.** What about the binding signal (log2 enrichment (interaction score)) [30] of the same sequence?
**A.** -4.45

**Q.** What about the binding signal (log2 enrichment (interaction score)) [31] of the same sequence?
**A.** -2.21

**Q.** What about the binding signal (log2 enrichment (interaction score)) [32] of the same sequence?
**A.** < -7.7

**Q.** And the binding signal (log2 enrichment (interaction score)) [33]?
**A.** -5.07

**Q.** And the binding signal (log2 enrichment (interaction score)) [34]?
**A.** < -7.6

**Q.** And the binding signal (log2 enrichment (interaction score)) [35]?
**A.** < -6.08

**Q.** And the binding signal (log2 enrichment (interaction score)) [36]?
**A.** < -6.18

**Q.** What about the binding signal (log2 enrichment (interaction score)) [37] of the same sequence?
**A.** < -7.38

**Q.** What about the binding signal (log2 enrichment (interaction score)) [38] of the same sequence?
**A.** -2.85

**Q.** And the binding signal (log2 enrichment (interaction score)) [39]?
**A.** -4.67
